Test results published in ChEMBL document CHEMBL4513149, “CO-ADD screening of MMV (CH) - MMV compounds” (2021).
The other results are listed elsewhere or left out. Measured potencies and affinities stand elsewhere.

What follows are molecules tested on Pseudomonas aeruginosa. Settings: Concentration 20 uM; ASSAY_TEST Inhibition of Bacterial Growth; detection method Absorption (OD600); MEDIA CAMHB; plate type 384well; NBS; CORNING #3640; time 18 hr.
In the case of `CO[C@@H]1CN(c2ccc(C#CC3(O)CN4CCC3CC4)c(Cc3ccccc3)n2)C[C@H]1O` (stereo not given in full), the Inhibition is reported as -5.15%.
With `Cc1cc(C2=NOC(c3cc(Cl)c(F)c(Cl)c3)(C(F)(F)F)C2)ccc1C(=O)NCc1ccc2c(c1)C(C)(C)OB2O` (stereo not given) the Inhibition was 3.88%.
`Cc1nn(Cc2ccccc2)c(Cl)c1C(=O)NC1CCCCCC1` was tested, and the Inhibition was 0.66%.
Molecule `Cc1cccc(C(=O)Nc2ccnc(N(C)C3CCN(CC(C)C)CC3)c2)c1` has an Inhibition of 7.43%.
`CNCCC(Oc1ccc(C(F)(F)F)cc1)c1ccccc1` (stereo not given) [FLUOXETINE] gave an Inhibition of 5.21%.
Molecule `CO[C@@H](C(=O)N1Cc2[nH]nc(NC(=O)c3ccc(N4CCN(C)CC4)cc3)c2C1)c1ccccc1` [DANUSERTIB] has an Inhibition of 5.56%.
Work on `CC1(C)OB(O)c2ccc(C3=NOC(c4cc(Cl)c(F)c(Cl)c4)(C(F)(F)F)C3)cc21` (stereo not given) yielded an Inhibition of 15.74%.
`Nc1c2c(nc3sc4c(c13)CCCC4)CCCC2` was tested, and the Inhibition was 5%.
Work on `Cc1nn(C)c(C)c1NS(=O)(=O)c1c(Cl)cc(-c2ccnc(N3CCNCC3)c2)cc1Cl` yielded an Inhibition of 4.77%.
Work on `CC(=O)Oc1ccccc1C(=O)Nc1ncc([N+](=O)[O-])s1` [NITAZOXANIDE] yielded an Inhibition of 19.1%.
